Experimental data from patent US5358959A, “Methods for treating arteriosclerosis” (President and Fellows of Harvard University, priority 1993, dated 1994).

Tested on: Rat vascular smooth muscle cells
Experiment: cells
Format: cell-based
Details: read-out: ID50, inhibition of DNA synthesis
Method: DNA synthesis assessed by the uptake of [3H]thymidine: Cells are grown in either 48 or 96 wells plates (Costar, Cambridge, Mass.) at 10^4 and 0.8 10^3 cells per well, respectively, and grown in Dubelcco's modified Eagle's medium (DME, Gibco, Grand Island, N.Y.) supplemented with 10% heat-inactivated calf serum; they are kept at 37° C. in 5% CO2. When they reach confluence, usually between 3 and 4 days, the medium is replaced with DME 0.5% serum to make them quiescent, and mitogenesis assays are performed 24 hours later.
Quiescent cells are exposed to a mitogenic stimulus, such as 10% serum, PDGF (Sigma Co. St. Louis, Mo.), bFGF (Upstate Biotechnologies, Lake Placid, N.Y.), or other appropriate mitogen according to the cell line, and 3 hours 1 later μCi/ml of [3H]thymidine (Dupont, Billerica, Mass.) is added to the wells, and the cells maintained at 37° C./5% CO2 for additional 21 hours. Then the cells are washed 3 times with DME medium and the acid-precipitable radioactivity is extracted with cold 10% TCA (Sigma, Co). After neutralization with 0.3N NaOH (Sigma Co.), aliquots are counted in a Packard Tri-Carb Scintillation counter (Packard Instrument, Downer's Grove, Ill.). […]

Clc1ccccc1C(c1ccccc1)(c1ccccc1)n1ccnc1 [CLT, clotrimazole]
IC50: ~1500 nM
